These are yes or no findings as the source states them, for the method shown. Binding seen in cells or lysates may run through a third protein. Here binding means that the protein was enriched with, or labelled near, the bait; the list need not be complete. Where a sequence is shown, tags or fusion partners need not be part of it.
T1: Flag-MLKL-Q356A (human) (UniProt Q8NB16)
T1 sequence: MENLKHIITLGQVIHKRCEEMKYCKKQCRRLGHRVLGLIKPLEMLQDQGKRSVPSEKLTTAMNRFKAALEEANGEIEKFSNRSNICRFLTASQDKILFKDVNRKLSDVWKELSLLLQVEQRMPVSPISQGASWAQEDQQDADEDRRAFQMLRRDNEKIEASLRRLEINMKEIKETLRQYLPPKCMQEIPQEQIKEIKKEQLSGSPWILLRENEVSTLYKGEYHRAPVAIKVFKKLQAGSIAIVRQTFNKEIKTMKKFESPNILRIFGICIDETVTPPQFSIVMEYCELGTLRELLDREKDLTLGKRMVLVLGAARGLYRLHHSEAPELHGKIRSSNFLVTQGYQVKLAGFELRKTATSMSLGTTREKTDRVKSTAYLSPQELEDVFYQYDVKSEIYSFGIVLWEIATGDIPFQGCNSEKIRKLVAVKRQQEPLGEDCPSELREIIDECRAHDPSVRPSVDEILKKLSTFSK

Amino acid sequences for entries named in this document (tags omitted).
UniProt P55263: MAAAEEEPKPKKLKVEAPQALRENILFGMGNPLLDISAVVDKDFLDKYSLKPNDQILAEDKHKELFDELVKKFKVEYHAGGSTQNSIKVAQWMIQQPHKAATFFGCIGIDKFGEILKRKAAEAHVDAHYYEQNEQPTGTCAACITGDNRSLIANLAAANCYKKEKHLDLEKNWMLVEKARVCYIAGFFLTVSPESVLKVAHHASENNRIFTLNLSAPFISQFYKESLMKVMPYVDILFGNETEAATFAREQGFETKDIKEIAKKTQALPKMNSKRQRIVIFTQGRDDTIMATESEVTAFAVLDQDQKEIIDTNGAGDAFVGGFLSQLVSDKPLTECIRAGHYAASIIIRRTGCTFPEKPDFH
UniProt Q05655: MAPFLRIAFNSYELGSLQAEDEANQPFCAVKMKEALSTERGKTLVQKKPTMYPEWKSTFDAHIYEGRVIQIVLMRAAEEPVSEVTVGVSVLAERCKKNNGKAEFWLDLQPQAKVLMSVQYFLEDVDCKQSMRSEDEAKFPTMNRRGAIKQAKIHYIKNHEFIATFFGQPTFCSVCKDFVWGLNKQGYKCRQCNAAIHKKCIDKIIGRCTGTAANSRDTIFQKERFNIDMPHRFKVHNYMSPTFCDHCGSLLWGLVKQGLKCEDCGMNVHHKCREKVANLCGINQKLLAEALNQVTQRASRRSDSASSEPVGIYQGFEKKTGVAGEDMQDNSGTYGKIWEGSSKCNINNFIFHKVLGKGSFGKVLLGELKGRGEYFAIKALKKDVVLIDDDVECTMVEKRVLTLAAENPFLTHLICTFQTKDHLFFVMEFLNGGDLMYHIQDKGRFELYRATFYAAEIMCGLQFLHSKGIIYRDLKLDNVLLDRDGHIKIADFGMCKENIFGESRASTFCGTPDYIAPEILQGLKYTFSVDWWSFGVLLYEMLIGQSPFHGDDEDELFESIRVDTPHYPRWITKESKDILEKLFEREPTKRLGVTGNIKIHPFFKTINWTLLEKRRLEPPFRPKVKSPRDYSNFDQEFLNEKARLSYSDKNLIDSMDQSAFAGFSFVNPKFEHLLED
UniProt Q9H4A3: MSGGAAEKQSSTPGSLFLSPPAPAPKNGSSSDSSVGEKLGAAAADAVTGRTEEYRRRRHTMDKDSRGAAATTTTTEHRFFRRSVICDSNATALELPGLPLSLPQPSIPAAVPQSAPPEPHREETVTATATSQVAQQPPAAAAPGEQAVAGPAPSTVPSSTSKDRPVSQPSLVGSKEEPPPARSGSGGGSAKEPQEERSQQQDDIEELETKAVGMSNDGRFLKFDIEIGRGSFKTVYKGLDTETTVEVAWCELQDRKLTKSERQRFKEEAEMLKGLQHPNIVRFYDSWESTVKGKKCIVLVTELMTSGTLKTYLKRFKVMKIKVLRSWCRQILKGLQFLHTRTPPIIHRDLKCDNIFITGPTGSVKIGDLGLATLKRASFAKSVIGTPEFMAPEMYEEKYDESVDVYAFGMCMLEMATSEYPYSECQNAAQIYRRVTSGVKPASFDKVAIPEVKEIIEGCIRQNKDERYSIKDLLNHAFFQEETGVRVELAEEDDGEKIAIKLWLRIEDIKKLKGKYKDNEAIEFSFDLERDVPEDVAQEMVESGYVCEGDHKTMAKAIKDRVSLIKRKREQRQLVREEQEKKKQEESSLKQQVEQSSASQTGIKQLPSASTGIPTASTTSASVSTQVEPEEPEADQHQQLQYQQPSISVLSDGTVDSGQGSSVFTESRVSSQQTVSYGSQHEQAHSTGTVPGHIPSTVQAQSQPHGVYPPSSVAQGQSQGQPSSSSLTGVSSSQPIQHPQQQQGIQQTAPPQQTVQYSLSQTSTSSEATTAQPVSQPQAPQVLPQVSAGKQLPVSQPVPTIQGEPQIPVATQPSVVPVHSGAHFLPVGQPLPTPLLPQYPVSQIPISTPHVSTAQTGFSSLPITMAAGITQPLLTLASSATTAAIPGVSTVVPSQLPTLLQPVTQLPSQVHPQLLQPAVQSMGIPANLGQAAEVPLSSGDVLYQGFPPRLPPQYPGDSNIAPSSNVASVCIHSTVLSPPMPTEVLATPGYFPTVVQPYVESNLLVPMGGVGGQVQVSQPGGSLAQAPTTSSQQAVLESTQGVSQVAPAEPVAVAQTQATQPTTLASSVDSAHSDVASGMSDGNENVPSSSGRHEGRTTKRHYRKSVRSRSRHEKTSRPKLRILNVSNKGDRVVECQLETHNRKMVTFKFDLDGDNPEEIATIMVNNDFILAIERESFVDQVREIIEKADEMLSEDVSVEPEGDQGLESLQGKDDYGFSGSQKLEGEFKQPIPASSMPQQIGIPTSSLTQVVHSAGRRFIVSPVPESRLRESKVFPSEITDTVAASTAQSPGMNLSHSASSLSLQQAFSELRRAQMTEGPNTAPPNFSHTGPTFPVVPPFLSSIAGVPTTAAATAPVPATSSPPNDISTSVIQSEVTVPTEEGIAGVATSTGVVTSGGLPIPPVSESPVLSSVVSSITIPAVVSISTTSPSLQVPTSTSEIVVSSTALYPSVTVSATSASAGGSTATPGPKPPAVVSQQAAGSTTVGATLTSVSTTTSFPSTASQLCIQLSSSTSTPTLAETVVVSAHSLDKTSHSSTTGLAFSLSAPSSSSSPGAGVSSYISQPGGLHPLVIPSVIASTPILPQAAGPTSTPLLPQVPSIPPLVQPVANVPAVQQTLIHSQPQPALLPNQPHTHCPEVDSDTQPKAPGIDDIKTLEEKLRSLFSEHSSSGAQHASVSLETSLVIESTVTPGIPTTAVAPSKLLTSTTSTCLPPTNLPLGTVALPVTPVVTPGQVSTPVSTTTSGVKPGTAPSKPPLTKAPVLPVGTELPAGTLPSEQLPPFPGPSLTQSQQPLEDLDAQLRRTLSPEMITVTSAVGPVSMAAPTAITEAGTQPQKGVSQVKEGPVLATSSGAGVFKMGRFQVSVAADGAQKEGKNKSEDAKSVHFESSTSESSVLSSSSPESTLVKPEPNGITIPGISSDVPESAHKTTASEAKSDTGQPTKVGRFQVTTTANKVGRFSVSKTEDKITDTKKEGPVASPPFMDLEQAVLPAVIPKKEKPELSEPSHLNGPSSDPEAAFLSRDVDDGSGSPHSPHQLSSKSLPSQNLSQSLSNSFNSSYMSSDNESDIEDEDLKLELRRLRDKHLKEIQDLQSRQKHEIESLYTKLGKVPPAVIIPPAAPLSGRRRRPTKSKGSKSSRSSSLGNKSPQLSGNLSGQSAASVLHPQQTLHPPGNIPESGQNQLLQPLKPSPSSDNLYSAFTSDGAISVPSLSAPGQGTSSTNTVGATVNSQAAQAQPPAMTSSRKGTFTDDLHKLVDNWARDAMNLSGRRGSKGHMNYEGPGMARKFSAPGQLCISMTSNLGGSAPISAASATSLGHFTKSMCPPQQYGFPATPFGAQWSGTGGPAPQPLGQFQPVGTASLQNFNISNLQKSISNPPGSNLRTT

B1: PRKCI (enzyme, UniProt P41743 1-596)
chain: MPTQRDSSTMSHTVAGGGSGDHSHQVRVKAYYRGDIMITHFEPSISFEGLCNEVRDMCSFDNEQLFTMKWIDEEGDPCTVSSQLELEEAFRLYELNKDSELLIHVFPCVPERPGMPCPGEDKSIYRRGARRWRKLYCANGHTFQAKRFNRRAHCAICTDRIWGLGRQGYKCINCKLLVHKKCHKLVTIECGRHSLPQEPVMPMDQSSMHSDHAQTVIPYNPSSHESLDQVGEEKEAMNTRESGKASSSLGLQDFDLLRVIGRGSYAKVLLVRLKKTDRIYAMKVVKKELVNDDEDIDWVQTEKHVFEQASNHPFLVGLHSCFQTESRLFFVIEYVNGGDLMFHMQRQRKLPEEHARFYSAEISLALNYLHERGIIYRDLKLDNVLLDSEGHIKLTDYGMCKEGLRPGDTTSTFCGTPNYIAPEILRGEDYGFSVDWWALGVLMFEMMAGRSPFDIVGSSDNPDQNTEDYLFQVILEKQIRIPRSLSVKAASVLKSFLNKDPKERLGCHPQTGFADIQGHPFFRNVDWDMMEQKQVVPPFKPNISGEFGLDNFDSQFTNEPVQLTPDDDDIVRKIDQSEFEGFEYINPLLMSAEECV

target: T1, Flag-MLKL-Q356A (human); assay: affinity purification with mass spectrometry; oligomerized MLKL Q356A after Dox induction, with or without NSA; proteins bound identified by mass spectrometry (Table S4)

| binding | Molecule |
| --- | --- |
| binds | ADK (from UniProt P55263 1-362) (enzyme) |
| binds | PRKCD (from UniProt Q05655 1-676) (enzyme) |
| binds | WNK1 (from UniProt Q9H4A3 1-2382) (enzyme) |
| binds | B1 |

Source: article PMC8542044
